The amount applied is not stated for every result.
Tested on: P. aeruginosa PA14 Δphz mutant
Test: Redox cycling between Δphz cells and working electrode (anodic current, charge transferred, Faraday's law)
Type: cell-based, Pseudomonas aeruginosa
Conditions: in the presence of phenazine, within 2 hours; background 5-10 μA

Row | SMILES | anodic current
1 | Oc1cccc2nc3ccccc3nc12 [1-OHPHZ, 1-hydroxyphenazine] | 45±10 μA
2 | O=C(O)c1cccc2nc3ccccc3nc12 [PCA, phenazine-1-carboxylic acid] | 80±10 μA
3 | C[n+]1c2ccccc2nc2c([O-])cccc21 [PYO, Pyocyanin] | 80±10 μA
